# Test results reported in the supplement of paper PMC8728848.
# The other results are listed elsewhere or left out.
# B1: Lb MiSSP8 (Laccaria bicolor) (protein)
# chain: MYFHTLFACATLMLITTAHASPTVINSLDSRKADLNGDVEARHAADWRRDSDWRRDSDWRRDSDWRRDSD
# Experiments:
# Test in all cases: glycan array binding signal (z-score within array); higher = stronger binding
# Conditions in all cases: glycan notation: IUPAC condensed, linker removed
# Gal(b1-4)Glc = molecular target: Gal(b1-4)Glc
# How it was run: (§1)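 Columns mapping to the same glycan were averaged after glycan names were converted to IUPAC-condensed notation. The data come from 3228 arrays in the Consortium for Functional Glycomics database, limited to those with an available protein sequence. Binding is reported as a within-array Z-score averaged across arrays of one protein sequence and across linkers.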
# Gal(b1-4)Glc6S = molecular target: Gal(b1-4)Glc6S
# How it was run: as §1
# Gal(b1-4)GlcNAc = molecular target: Gal(b1-4)GlcNAc
# How it was run: as §1
# [1] = molecular target: Gal(b1-4)GlcNAc(a1-6)Gal(b1-4)GlcNAc
# How it was run: as §1
# Gal(b1-4)GlcNAc(b1-2)Man = molecular target: Gal(b1-4)GlcNAc(b1-2)Man
# How it was run: as §1
# [2] = molecular target: Gal(b1-4)GlcNAc(b1-2)Man(a1-3)Man(b1-4)GlcNAc(b1-4)GlcNAc
# How it was run: as §1
# [3] = molecular target: Gal(b1-4)GlcNAc(b1-2)Man(a1-3)[Gal(b1-4)GlcNAc(b1-2)Man(a1-6)]Man(b1-4)GlcNAc(b1-4)GlcNAc
# How it was run: as §1
# [4] = molecular target: Gal(b1-4)GlcNAc(b1-2)Man(a1-3)[Gal(b1-4)GlcNAc(b1-2)Man(a1-6)]Man(b1-4)GlcNAc(b1-4)[Fuc(a1-6)]GlcNAc
# How it was run: as §1
# [5] = molecular target: Gal(b1-4)GlcNAc(b1-2)Man(a1-3)[Gal(b1-4)GlcNAc(b1-2)Man(a1-6)][Gal(b1-4)GlcNAc(b1-4)]Man(b1-4)GlcNAc(b1-4)[Fuc(a1-6)]GlcNAc
# How it was run: as §1
# [6] = molecular target: Gal(b1-4)GlcNAc(b1-2)Man(a1-3)[Gal(b1-4)GlcNAc(b1-2)Man(a1-6)][GlcNAc(b1-4)]Man(b1-4)GlcNAc(b1-4)[Fuc(a1-6)]GlcNAc
# How it was run: as §1
# [7] = molecular target: Gal(b1-4)GlcNAc(b1-2)Man(a1-3)[GlcNAc(b1-2)Man(a1-6)]Man(b1-4)GlcNAc(b1-4)GlcNAc
# How it was run: as §1
# [8] = molecular target: Gal(b1-4)GlcNAc(b1-2)Man(a1-3)[GlcNAc(b1-4)][Gal(b1-4)GlcNAc(b1-2)Man(a1-6)]Man(b1-4)GlcNAc(b1-4)GlcNAc
# How it was run: as §1
# [9] = molecular target: Gal(b1-4)GlcNAc(b1-2)Man(a1-3)[Man(a1-6)]Man(b1-4)GlcNAc(b1-4)GlcNAc
# How it was run: as §1
# [10] = molecular target: Gal(b1-4)GlcNAc(b1-2)Man(a1-6)Man(b1-4)GlcNAc(b1-4)GlcNAc
# How it was run: as §1
# [11] = molecular target: Gal(b1-4)GlcNAc(b1-2)Man(a1-6)[GlcNAc(b1-2)Man(a1-3)]Man(b1-4)GlcNAc(b1-4)GlcNAc
# How it was run: as §1
# [12] = molecular target: Gal(b1-4)GlcNAc(b1-2)Man(a1-6)[Man(a1-3)]Man(b1-4)GlcNAc(b1-4)GlcNAc
# How it was run: as §1
# [13] = molecular target: Gal(b1-4)GlcNAc(b1-2)[Gal(b1-4)GlcNAc(b1-4)]Man(a1-3)[Gal(b1-4)GlcNAc(b1-2)Man(a1-6)]Man(b1-4)GlcNAc(b1-4)GlcNAc
# How it was run: as §1
# [14] = molecular target: Gal(b1-4)GlcNAc(b1-2)[Gal(b1-4)GlcNAc(b1-4)]Man(a1-3)[Gal(b1-4)GlcNAc(b1-2)[Gal(b1-4)GlcNAc(b1-6)]Man(a1-6)]Man(b1-4)GlcNAc(b1-4)GlcNAc
# How it was run: as §1
# [15] = molecular target: Gal(b1-4)GlcNAc(b1-2)[Gal(b1-4)GlcNAc(b1-4)]Man(a1-3)[GlcNAc(b1-4)][Gal(b1-4)GlcNAc(b1-2)Man(a1-6)]Man(b1-4)GlcNAc(b1-4)GlcNAc
# How it was run: as §1
# [16] = molecular target: Gal(b1-4)GlcNAc(b1-2)[Gal(b1-4)GlcNAc(b1-4)]Man(a1-3)[GlcNAc(b1-4)][Gal(b1-4)GlcNAc(b1-2)[Gal(b1-4)GlcNAc(b1-6)]Man(a1-6)]Man(b1-4)GlcNAc(b1-4)GlcNAc
# How it was run: as §1
# [17] = molecular target: Gal(b1-4)GlcNAc(b1-2)[Gal(b1-4)GlcNAc(b1-6)]Man(a1-6)[Gal(b1-4)GlcNAc(b1-2)Man(a1-3)]Man(b1-4)GlcNAc(b1-4)GlcNAc
# How it was run: as §1
# [18] = molecular target: Gal(b1-4)GlcNAc(b1-2)[Gal(b1-4)GlcNAc(b1-6)]Man(a1-6)[Gal(b1-4)GlcNAc(b1-2)Man(a1-3)]Man(b1-4)GlcNAc(b1-4)[Fuc(a1-6)]GlcNAc
# How it was run: as §1
binder,measurement,setting,value
B1,glycan array binding signal (z-score),Gal(b1-4)Glc,0.702
same,glycan array binding signal (z-score),Gal(b1-4)Glc6S,-0.84
same,glycan array binding signal (z-score),Gal(b1-4)GlcNAc,0.087
same,glycan array binding signal (z-score),[1],-0.633
same,glycan array binding signal (z-score),Gal(b1-4)GlcNAc(b1-2)Man,0.437
same,glycan array binding signal (z-score),[2],-0.716
same,glycan array binding signal (z-score),[3],-0.619
same,glycan array binding signal (z-score),[4],0.526
same,glycan array binding signal (z-score),[5],-0.599
same,glycan array binding signal (z-score),[6],-0.751
same,glycan array binding signal (z-score),[7],-0.709
same,glycan array binding signal (z-score),[8],-0.026
same,glycan array binding signal (z-score),[9],2.3
same,glycan array binding signal (z-score),[10],-0.751
same,glycan array binding signal (z-score),[11],-0.578
same,glycan array binding signal (z-score),[12],-0.737
same,glycan array binding signal (z-score),[13],-0.102
same,glycan array binding signal (z-score),[14],-0.771
same,glycan array binding signal (z-score),[15],-0.274
same,glycan array binding signal (z-score),[16],-0.813
same,glycan array binding signal (z-score),[17],-0.392
same,glycan array binding signal (z-score),[18],0.243

# An excerpt of these results, with bars between the fields:
binder | measurement | setting | value
B1 | glycan array binding signal (z-score) | [13] | -0.102
same | glycan array binding signal (z-score) | [14] | -0.771
